Measured values from paper PMC3510080, “Identification of Compounds with Anti-Proliferative Activity against Trypanosoma brucei brucei Strain 427 by a Whole Cell Viability Based HTS Campaign” (PLoS Neglected Tropical Diseases, 2012).

What follows are compounds tested on T.b. brucei bloodstream form lister 427 (assay: T.b. brucei Alamar Blue viability estimation assay (384-well HTS, retest and rescreen)). Conditions: dose-response of resupplied and reference compounds.
Format: cell-based, Trypanosoma brucei brucei
Description: T.b. brucei lister 427 cells were maintained in log phase growth in 25 cm^2 tissue culture flasks (Corning, NY, USA) by sub-culturing at either 24 or 48 hour intervals. Cells were grown in HMI-9 medium, supplemented with 10% fetal calf serum (FCS) and 100 IU/ml penicillin/streptomycin (Invitrogen, Carlsbad, California, USA) with incubation at 5% CO2 at 37°C in humidified conditions. HEK293 cells were maintained in high glucose DMEM with L-glutamine, supplemented with 1× non-essential amino acids (NEAA; Invitrogen, USA) and 1 mM sodium pyruvate. Growth conditions were in 5% CO2 at 37°C, under humidified conditions.
All reagent and cell additions were made with a Multidrop liquid handler (Thermo Scientific, Newington, NH, USA) under sterile conditions. Fifty-five microliters of 2000 cells/mL of T.b. brucei in HMI-9 medium were added to a black, clear-bottomed 384-well lidded plate (BD Biosciences, Franklin Lanes, NJ, USA). Cells were incubated for 24 hours at 37°C in an atmosphere of 5% CO2 before addition of 5 µl of compounds/DMSO for control wells. Compounds suspended in 100% DMSO or 100% DMSO as controls were pre-diluted 1∶21 in high glucose DMEM without FCS by using a Minitrack robotic liquid handler (PerkinElmer, Waltham, MA, USA). Five microliters of diluted sample was added to the plate to give a final DMSO concentration of 0.417% in the assay. Cells were incubated for an additional 48 hours at 37°C. Ten microliters of 70% Alamar Blue (Biosource, Bethesda, MD, USA) was added to each well (diluted in HMI-9 medium supplemented with 10% FCS) to a final concentration of 10% in the assay. The plate was incubated for two hours under the same conditions, then incubated for 22 hours in the dark at room temperature. Wells were read at 535 nm (excitation) and 590 nm (emission) wavelengths on a Victor II Wallac plate reader (PerkinElmer, USA). Specific dilutions are explained further in the primary and retest assay methodology. Reference drugs used in the assay were pentamidine (Sigma-Aldrich, St Louis, MO, USA), diminazene aceturate (Sigma-Aldrich, USA) and puromycin (Calbiochem, San Deigo, CA, USA). Pentamidine is used to treat patients with HAT and diminazene is a veterinary drug used against T.b. brucei to combat infections in cattle.
Primary screening of the library, consisting of 87,296 compounds in two hundred and forty eight 384-well plates, was undertaken in single point against T.b. brucei. Stock solutions consisted of test compound at a concentration of 5 mM in 100% DMSO. One µl of each compound stock solution was diluted by the addition of 40 µl of dilution medium (high glucose DMEM without FCS) by a multidrop liquid handler (Thermo Scientific, USA). A 5 µl sample of this diluted solution was then added to the trypanosome assay plate. The final concentration of test compound in the assay was […] and that of DMSO was 0.42% v/v. Compounds were screened over a total of 11 days, at an average of 80 plates per day, taking into consideration that the assay incubation was 3 days total. Test compounds were added to plates in batches of 20 at two hour intervals, to maintain the timing of additions and reads.
Compound activity was calculated as the percentage inhibition in relation to positive and negative controls. […] These in-plate negative controls were used in an effort to normalise compound activity in relation to any plate to plate variation in the assay signal. A whole 384-well control plate was included in each day's screening, one per 20 compound plates containing half a plate of 2 µM pentamidine for the positive assay control, and half a plate of 0.42% v/v DMSO as a negative control. The positive assay control was used to calculate compound activity for batches of 20 compound plates. As well providing the positive control data, these whole plate controls were used for the calculation of the Z' to measure the reproducibility of the assay.

| Compound | T.B Hill Slope |
| --- | --- |
| COc1ccc(C[C@H](N)C(=O)N[C@H]2[C@@H](O)[C@H](n3cnc4c(N(C)C)ncnc43)O[C@@H]2CO)cc1 [Puromycin, puromycin, reference compound] | 4.90 |
| CCS(=O)(=O)N1CCCc2ccc(NS(=O)(=O)c3ccccc3F)cc21 [Compound 5] | 3.09 |
| Cc1cc(O)nc(-n2nc(C)cc2NC(=O)C2CCCC2)n1 [Compound 4] | 3.33 |
| N=C(N)c1ccc(/N=N/Nc2ccc(C(=N)N)cc2)cc1 [Diminazene, diminazene aceturate, reference compound] | 4.25 |
| CCC(C)NC(=O)c1nc(-c2ccccc2)cnc1N (centres unmarked) [Compound 6] | 0.785 |
| CC(C)(C)C(=O)NCCc1csc(-c2cccc(F)c2)n1 [Compound 1] | 3.89 |
| CCOc1ccc(OCc2ccc(C(=O)N3CCCC(C)C3)cc2)cc1 (centres unmarked) [Compound 3] | 3.21 |
| N=C(N)c1ccc(OCCCCCOc2ccc(C(=N)N)cc2)cc1 [Pentamidine, pentamidine, reference compound] | 1.65 |
| O=C(NCCc1n[nH]c(-c2ccc(F)cc2)n1)c1cccc(F)c1 [Compound 2] | 17.0 |
| CCc1ccccc1N=C(NCCN1CCOCC1)NC(=O)c1ccccc1 [Compound 8] | 3.03 |
| O=C(Nc1ccc(Cl)c(-c2nc3ncccc3o2)c1)c1ccco1 [Compound 7] | 6.80 |
